Binding data for five molecules are collected here from publication PMC11772845.

By UniProt entry, the sequences of proteins in these tests, tags left out. Where a name states a change or a piece, a line headed by the entry shows the natural chain unless it says otherwise.
UniProt P40098: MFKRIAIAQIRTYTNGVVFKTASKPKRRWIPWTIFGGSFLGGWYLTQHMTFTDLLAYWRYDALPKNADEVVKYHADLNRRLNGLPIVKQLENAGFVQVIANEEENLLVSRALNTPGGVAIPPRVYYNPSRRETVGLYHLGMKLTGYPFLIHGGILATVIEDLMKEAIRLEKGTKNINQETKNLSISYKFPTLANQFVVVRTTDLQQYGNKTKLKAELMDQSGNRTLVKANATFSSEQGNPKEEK
UniProt P38172: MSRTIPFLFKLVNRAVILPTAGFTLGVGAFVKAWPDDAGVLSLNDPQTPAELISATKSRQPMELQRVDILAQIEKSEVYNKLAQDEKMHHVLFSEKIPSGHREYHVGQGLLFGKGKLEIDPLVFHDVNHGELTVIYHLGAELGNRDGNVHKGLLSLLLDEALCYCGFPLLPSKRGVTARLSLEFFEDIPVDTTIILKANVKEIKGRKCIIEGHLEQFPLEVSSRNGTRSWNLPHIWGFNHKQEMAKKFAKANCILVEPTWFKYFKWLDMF

Results are given in words; binding and its absence hold for the method and conditions named. Binding seen in cells or lysates may run through a third protein. Binding calls can cover weak binding; strength is not graded here.

Test [1] deals with T1, Cor1TAP (S. cerevisiae) (UniProt P07256).
T1 sequence: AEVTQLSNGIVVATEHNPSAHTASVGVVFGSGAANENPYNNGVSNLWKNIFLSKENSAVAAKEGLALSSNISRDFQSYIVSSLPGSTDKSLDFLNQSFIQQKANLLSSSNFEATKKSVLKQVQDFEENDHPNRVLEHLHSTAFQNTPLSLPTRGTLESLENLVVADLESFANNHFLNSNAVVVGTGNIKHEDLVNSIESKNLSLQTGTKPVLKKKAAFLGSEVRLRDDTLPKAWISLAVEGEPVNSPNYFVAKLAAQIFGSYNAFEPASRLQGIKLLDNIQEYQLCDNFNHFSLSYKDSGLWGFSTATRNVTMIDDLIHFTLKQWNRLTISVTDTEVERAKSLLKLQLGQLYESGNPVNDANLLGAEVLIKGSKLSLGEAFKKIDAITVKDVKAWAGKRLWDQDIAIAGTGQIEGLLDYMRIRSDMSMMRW
Kind of test: co-IP; protein A- or TAP-tagged bait captured on IgG-Sepharose from mitochondria solubilised in 1% digitonin (20 mM Tris-HCl pH 7.4, 50 mM NaCl, 0.1 mM EDTA, 10% glycerol), washed with 0.3% digitonin, eluted with TEV protease at 4 °C; eluates analysed by SDS-PAGE or BN-PAGE and western blot; untagged wild type as control; also done with rho-, mic10Δ (Mic60 bait), mar26Δ, rip1Δ and Mar26-overexpressing mitochondria. In general terms: Immunoblotting shows a protein as a band on a membrane.

For test [2], the target named is T2, Mic60_(ProtA) (S. cerevisiae) (UniProt P36112).
T2 sequence: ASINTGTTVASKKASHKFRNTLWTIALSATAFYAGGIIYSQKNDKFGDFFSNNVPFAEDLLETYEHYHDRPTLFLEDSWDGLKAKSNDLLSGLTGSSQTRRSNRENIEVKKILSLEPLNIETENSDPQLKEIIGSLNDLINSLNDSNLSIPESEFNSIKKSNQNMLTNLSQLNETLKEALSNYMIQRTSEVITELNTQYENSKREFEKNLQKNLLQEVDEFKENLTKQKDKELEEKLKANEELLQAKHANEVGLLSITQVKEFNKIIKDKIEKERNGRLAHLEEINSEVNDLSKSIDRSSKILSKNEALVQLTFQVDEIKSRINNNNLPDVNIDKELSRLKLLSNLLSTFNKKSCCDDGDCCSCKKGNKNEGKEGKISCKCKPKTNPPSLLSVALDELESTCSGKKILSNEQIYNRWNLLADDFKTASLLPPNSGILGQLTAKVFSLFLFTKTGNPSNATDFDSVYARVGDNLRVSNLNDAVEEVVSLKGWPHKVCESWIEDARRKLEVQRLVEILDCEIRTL
Described as above.

In test [3] the target is Mar26_(ProtA) (S. cerevisiae) (UniProt P40098). The test is described as above.
Test [4] addresses Mrx3_(ProtA) (S. cerevisiae) (UniProt P38172). The test is described as above.
Test [5] has as its target Mar26_(ProtA) (S. cerevisiae) (UniProt P40098). Kind of test: co-IP; [^35S]-labelled Rip1 imported into Mar26_(ProtA)bcs1Δ mitochondria (export of Rip1 from the matrix blocked), IgG chromatography, autoradiography.
Test [6] has the same target. Kind of test: co-IP; [^35S]-labelled precursor imported into isolated mitochondria that carry the protein A-tagged bait; then digitonin solubilisation, IgG chromatography, SDS-PAGE (or two-dimensional gel) and autoradiography.

With Mar26 (from UniProt P40098), the binding result in test [1] and in test [2] was “binds” in each case.

B1: Cox2 (protein, UniProt P00410 16-251)
chain: DVPTPYACYFQDSATPNQEGILELHDNIMFYLLVILGLVSWMLYTIVMTYSKNPIAYKYIKHGQTIEVIWTIFPAVILLIIAFPSFILLYLCDEVISPAMTIKAIGYQWYWKYEYSDFINDSGETVEFESYVIPDELLEEGQLRLLDTDTSMVVPVDTHIRFVVTAADVIHDFAIPSLGIKVDATPGRLNQVSALIQREGVFYGACSELCGTGHANMPIKIEAVSLPKFLEWLNEQ
For the molecule B1, the binding result was “binds” in test [3] and “binds weakly” in test [4].

B2: Rip1 (protein, UniProt P08067 31-215)
chain: KSTYRTPNFDDVLKENNDADKGRSYAYFMVGAMGLLSSAGAKSTVETFISSMTATADVLAMAKVEVNLAAIPLGKNVVVKWQGKPVFIRHRTPHEIQEANSVDMSALKDPQTDADRVKDPQWLIMLGICTHLGCVPIGEAGDFGGWFCPCHGSHYDISGRIRKGPAPLNLEIPAYEFDGDKVIVG
As for B2, the binding result in test [3] was “binds”; in test [4] it was “binds weakly”.

B3: Radiolabeled Rip1 (protein, UniProt P08067 1-215)
chain: MLGIRSSVKTCFKPMSLTSKRLISQSLLASKSTYRTPNFDDVLKENNDADKGRSYAYFMVGAMGLLSSAGAKSTVETFISSMTATADVLAMAKVEVNLAAIPLGKNVVVKWQGKPVFIRHRTPHEIQEANSVDMSALKDPQTDADRVKDPQWLIMLGICTHLGCVPIGEAGDFGGWFCPCHGSHYDISGRIRKGPAPLNLEIPAYEFDGDKVIVG
modifications: [^35S]methionine label
In the case of B3, the binding entry in test [5] is given as “binds weakly”; in test [6], “binds”.

B4: Cyt1 (protein, UniProt P07143 62-309)
chain: MTAAEHGLHAPAYAWSHNGPFETFDHASIRRGYQVYREVCAACHSLDRVAWRTLVGVSHTNEEVRNMAEEFEYDDEPDEQGNPKKRPGKLSDYIPGPYPNEQAARAANQGALPPDLSLIVKARHGGCDYIFSLLTGYPDEPPAGVALPPGSNYNPYFPGGSIAMARVLFDDMVEYEDGTPATTSQMAKDVTTFLNWCAEPEHDERKRLGLKTVIILSSLYLLSIWVKKFKWAGIKTRKFVFNPPKPRK
Consider B4, for which the binding result in test [4] is “binds weakly”.
